For test [1], the target named is CYFIP2 (endogenous, Xenopus retinal ganglion cell axons) (Xenopus laevis (endogenous in Xenopus retinal cultures)) (UniProt Q6GQD1). The test can be described thus: proximity ligation; Duolink in situ PLA on fixed Xenopus retinal explant cultures, endogenous proteins; signal counted in the RGC growth cone (central and peripheral domains).
The target is the same in test [2]. The test can be described thus: proximity ligation; Duolink in situ PLA on fixed Xenopus retinal explant cultures, endogenous proteins; signal counted in the RGC axon shaft.

The chains behind the UniProt entries cited, without tags or fusion partners. Where a name states a change or a piece, a line headed by the entry shows the natural chain unless it says otherwise.
UniProt Q6GQD1: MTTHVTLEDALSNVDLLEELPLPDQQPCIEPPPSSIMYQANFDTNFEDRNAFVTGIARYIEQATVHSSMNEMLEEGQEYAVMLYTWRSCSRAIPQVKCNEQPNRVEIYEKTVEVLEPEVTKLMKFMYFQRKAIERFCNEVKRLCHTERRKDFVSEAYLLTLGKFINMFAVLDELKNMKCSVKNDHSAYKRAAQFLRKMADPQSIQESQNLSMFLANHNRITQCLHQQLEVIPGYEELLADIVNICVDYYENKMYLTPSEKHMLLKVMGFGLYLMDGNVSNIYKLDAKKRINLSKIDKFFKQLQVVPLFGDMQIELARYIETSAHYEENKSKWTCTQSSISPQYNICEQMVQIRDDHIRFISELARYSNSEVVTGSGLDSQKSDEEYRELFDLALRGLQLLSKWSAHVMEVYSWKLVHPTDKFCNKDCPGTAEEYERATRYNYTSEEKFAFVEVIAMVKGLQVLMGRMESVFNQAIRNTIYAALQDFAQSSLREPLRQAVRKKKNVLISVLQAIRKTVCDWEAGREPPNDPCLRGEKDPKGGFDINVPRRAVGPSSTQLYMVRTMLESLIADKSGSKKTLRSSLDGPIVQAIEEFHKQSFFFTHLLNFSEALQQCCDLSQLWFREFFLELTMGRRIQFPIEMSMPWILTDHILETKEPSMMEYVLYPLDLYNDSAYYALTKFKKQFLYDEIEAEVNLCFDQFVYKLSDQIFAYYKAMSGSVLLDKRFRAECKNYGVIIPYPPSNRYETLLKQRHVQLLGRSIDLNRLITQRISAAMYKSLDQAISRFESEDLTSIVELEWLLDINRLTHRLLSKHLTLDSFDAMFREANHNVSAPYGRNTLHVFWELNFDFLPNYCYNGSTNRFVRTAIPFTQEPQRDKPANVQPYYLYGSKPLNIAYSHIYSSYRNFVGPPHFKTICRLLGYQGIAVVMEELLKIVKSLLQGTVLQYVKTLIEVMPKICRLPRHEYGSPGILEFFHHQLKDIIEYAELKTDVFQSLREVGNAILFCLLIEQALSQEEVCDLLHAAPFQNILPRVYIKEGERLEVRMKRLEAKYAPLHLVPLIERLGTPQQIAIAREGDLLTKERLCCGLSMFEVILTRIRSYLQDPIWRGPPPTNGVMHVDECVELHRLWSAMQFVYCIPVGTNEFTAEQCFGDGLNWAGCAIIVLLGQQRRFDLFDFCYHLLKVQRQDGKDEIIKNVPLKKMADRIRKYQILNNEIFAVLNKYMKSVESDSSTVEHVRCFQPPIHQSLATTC
UniProt P51115: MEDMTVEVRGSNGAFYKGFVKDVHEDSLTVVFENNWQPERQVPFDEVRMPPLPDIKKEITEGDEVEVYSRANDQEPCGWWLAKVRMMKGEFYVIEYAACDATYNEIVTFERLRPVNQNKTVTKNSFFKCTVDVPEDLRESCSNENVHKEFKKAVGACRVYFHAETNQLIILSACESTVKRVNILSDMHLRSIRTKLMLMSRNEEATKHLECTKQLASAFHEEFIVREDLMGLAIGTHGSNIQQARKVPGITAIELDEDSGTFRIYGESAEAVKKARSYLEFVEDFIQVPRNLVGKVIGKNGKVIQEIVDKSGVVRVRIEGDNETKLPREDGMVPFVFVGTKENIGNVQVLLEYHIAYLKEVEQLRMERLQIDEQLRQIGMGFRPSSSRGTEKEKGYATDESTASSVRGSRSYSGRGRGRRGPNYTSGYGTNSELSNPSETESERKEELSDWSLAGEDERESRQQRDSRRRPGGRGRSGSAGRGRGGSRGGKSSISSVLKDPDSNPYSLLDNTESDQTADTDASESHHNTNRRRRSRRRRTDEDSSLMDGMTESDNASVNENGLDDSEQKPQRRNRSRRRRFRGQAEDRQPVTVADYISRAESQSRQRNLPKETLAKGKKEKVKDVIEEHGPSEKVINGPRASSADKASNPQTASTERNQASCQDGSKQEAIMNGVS

Results are given in words; binding and its absence hold for the method and conditions named. Binding seen in cells or lysates may run through a third protein. Binding calls can cover weak binding; strength is not graded here.

Regarding “Xenopus RNA binding protein Fragile X mental retardation-related protein (xFXR) (from UniProt P51115)”, the binding result in test [1] and in test [2] was “binds” throughout.
